# Inconclusive means that the source gave no clear call. Such entries were picked first, then a sample of the others. For some assays here: Potencies of inconclusive entries are doubtful fits and often do not repeat. Calls of active or inactive are those of the source. Unless noted, the limit is not given here; nearly all actives have AC50 up to about 26 µM.
# What was measured:
# [1] = growth inhibition of DIPG glioma cells, dose response, cell-based, SU-DIPG-XIII, MIPE5.0, CellTiter-Glo, qHTS (AID 1347064; cut-off not given, nearly all actives have AC50 up to about 23 µM;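 as to AC50: cells exposed to compound for 48 hours before the viability read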); conditions: SU-DIPG-XIII viability, CellTiter-Glo ATP luminescence
# [2] = viability loss in pontine glioma line – cell-based, SU-DIPG-XXV, MIPE5.0, CellTiter-Glo, qHTS, dose response (AID 1347065); conditions: CellTiter-Glo ATP luminescence;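 also: cells exposed to compound for 48 hours before ATP readout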
# [3] = JHH-DIPG-1 glioma cell viability, MIPE5.0 library, CellTiter-Glo luminescence, qHTS (AID 1347067); conditions: JHH-DIPG-1 glioma viability, CellTiter-Glo ATP luminescence;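 also: cells exposed to compound for 48 hours before readout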
# [4] = SU-DIPG-XXV glioma cell viability, MIPE5.0 library, qHTS (AID 1347068; cut-off not given, nearly all actives have IC50 up to about 30 µM;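 as to IC50: cells exposed to compound for 48 hours before viability readout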)
# [5] = SU-DIPG-VI glioma cell viability, MIPE4.0 library, CellTiter-Glo luminescence, qHTS (AID 1347066; cut-off not given, nearly all actives have AC50 up to about 30 µM;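 also: cells exposed to compound for 48 hours before readout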); conditions: CellTiter-Glo ATP luminescence
smiles,measurement,setting,value
NS(=O)(=O)c1ccc(NC(=S)N2CCN(C/C=C/c3ccccc3)CC2)cc1,AC50,[1],inconclusive: 37.2 µM [cytotoxic]
same,AC50,[2],inconclusive: 8.33 µM [cytotoxic]
same,AC50,[3],inconclusive: 13.2 µM [cytotoxic]
same,IC50,[4],inconclusive: 20.9 µM [cytotoxic]
C[C@@H](O)[C@@H](C)Oc1nc(Nc2ccc(S(=N)(=O)C3CC3)cc2)ncc1C(F)(F)F (stereo partly drawn),AC50,[1],inconclusive: 18.6 µM [cytotoxic]
same,AC50,[2],inconclusive: 26.3 µM [cytotoxic]
same,AC50,[3],inconclusive: 29.5 µM [cytotoxic]
CC(Oc1ccc(O)cc1)(P(=O)(O)O)P(=O)(O)O,outcome,[1],inactive
same,AC50,[2],inconclusive: 14.8 µM [cytotoxic]
same,outcome,[5],inactive
same,outcome,[4],inactive
CC[C@H](C)C(=O)O[C@H]1CCC=C2C=C[C@H](C)[C@H](CC[C@@H]3C[C@@H](O)CC(=O)O3)[C@H]21,AC50,[1],inconclusive: 4.68 µM [cytotoxic]
same,AC50,[2],inconclusive: 1.32 µM [cytotoxic]
same,AC50,[3],active: 23.5 µM
same,IC50,[4],inconclusive: 29.5 µM [cytotoxic]
CCCCCCCCCCCCCCCCOCCCOP(=O)(O)COC(CO)Cn1ccc(N)nc1=O (stereo not drawn),AC50,[1],inconclusive: 14.8 µM [cytotoxic]
same,outcome,[2],inactive
same,outcome,[3],inactive
same,outcome,[4],inactive
COc1cc(C(N)=O)ccc1NC(=O)[C@@H]1N[C@@H](CC(C)(C)C)[C@@]2(C(=O)Nc3cc(Cl)ccc32)[C@H]1c1cccc(Cl)c1F,AC50,[1],inconclusive: 20.9 µM [cytotoxic]
same,AC50,[2],inconclusive: 37.2 µM [cytotoxic]
same,AC50,[3],active: 23.5 µM
same,IC50,[4],active: 16.6 µM

# For reference, part of the list above:
smiles,measurement,setting,value
CC(Oc1ccc(O)cc1)(P(=O)(O)O)P(=O)(O)O,outcome,[4],inactive
CC[C@H](C)C(=O)O[C@H]1CCC=C2C=C[C@H](C)[C@H](CC[C@@H]3C[C@@H](O)CC(=O)O3)[C@H]21,AC50,[1],inconclusive: 4.68 µM [cytotoxic]
same,AC50,[2],inconclusive: 1.32 µM [cytotoxic]
same,AC50,[3],active: 23.5 µM
same,IC50,[4],inconclusive: 29.5 µM [cytotoxic]
CCCCCCCCCCCCCCCCOCCCOP(=O)(O)COC(CO)Cn1ccc(N)nc1=O (stereo not drawn),AC50,[1],inconclusive: 14.8 µM [cytotoxic]

# From PubChem BioAssay
